{"source": "patent US20060035848A1", "about": "“Broad-spectrum inhibitor of viruses in the Flaviviridae family” (ZymeTx, Inc., priority 2004, published 2006)", "key": {"HCV replicon": {"test_system": "HCV replicon", "assay": "HCV replicon assay", "assay_type": "cell-based, hepatitis C virus", "conditions": "replicon RNA by RT-PCR after 24 hours; FIG. 1A"}, "YFV": {"test_system": "YFV", "assay_type": "cell-based, yellow fever virus"}, "vesicular stomatitis": {"test_system": "vesicular stomatitis", "conditions": "cited from earlier work"}, "coxsackie B-1 virus": {"test_system": "coxsackie B-1 virus", "conditions": "Kim et al., 1978; cited from earlier work"}, "Echo-6 virus": {"test_system": "Echo-6 virus", "conditions": "Kim et al., 1978; cited from earlier work"}, "five rhinoviruses": {"test_system": "five rhinoviruses", "conditions": "Kim et al., 1978; cited from earlier work"}}, "note": "For at least one compound, name, drawing or mass did not settle the structure.", "data": [{"compound": "Nc1nc(=O)n2ccn([C@@H]3O[C@H](CO)[C@@H](O)[C@H]3O)c2n1", "note": "[ZX-2401, 2-amino-8-(β-D-ribofuranosyl) imidazo [1,2-a]-s-triazine-4-one]", "values": [{"measurement": "anti-HCV replicon effect", "setting": "HCV replicon", "value": "dose-responsive anti-HCV replicon effect"}, {"measurement": "reduction of viral CPE", "setting": "YFV", "value": "completely reduced"}, {"measurement": "viral CPE present", "setting": "YFV", "value": "minimal CPE present"}, {"measurement": "activity against vesicular stomatitis", "setting": "vesicular stomatitis", "value": "markedly active"}, {"measurement": "activity against coxsackie B-1 virus", "setting": "coxsackie B-1 virus", "value": "markedly active"}, {"measurement": "activity against Echo-6 virus", "setting": "Echo-6 virus", "value": "markedly active"}, {"measurement": "activity against five rhinoviruses", "setting": "five rhinoviruses", "value": "moderately active"}]}]}
